Reference: patent publication EP4796565A1, “SYNTHESIZED ANTI-CANCER LIPOPEPTIDE AND USE THEREOF” (Yongzhou Zhonggu Biotechnology Co., Ltd., priority 2023, dated 2025)
Not every detail of the peptide structures is certain; ends, links or a residue may be inferred.

Sequences of proteins named here, by UniProt entry; tags and fusion partners are left off.
UniProt P68400, whole entry: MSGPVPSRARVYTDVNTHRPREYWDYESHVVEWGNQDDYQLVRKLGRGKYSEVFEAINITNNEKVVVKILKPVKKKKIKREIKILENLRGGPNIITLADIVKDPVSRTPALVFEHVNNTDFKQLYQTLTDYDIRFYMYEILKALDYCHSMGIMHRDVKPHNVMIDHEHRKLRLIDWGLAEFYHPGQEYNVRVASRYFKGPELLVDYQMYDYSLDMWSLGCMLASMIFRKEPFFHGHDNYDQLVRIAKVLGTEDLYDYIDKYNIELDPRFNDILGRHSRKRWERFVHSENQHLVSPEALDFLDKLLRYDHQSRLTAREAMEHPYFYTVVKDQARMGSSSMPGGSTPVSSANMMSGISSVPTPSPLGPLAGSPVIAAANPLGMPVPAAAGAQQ

Columns and labels:
[1] = tested on: A549 cells; test: ROS levels (DHE reagent) and cell viability by flow cytometry; format: cell-based, human; conditions: ROS level
[2] = target: recombinant CK2α (Homo sapiens, UniProt P68400); test: CK2 radioactive assay; format: biochemical
[3] = tested on: Lewis mouse lung carcinoma 3LL cells; test: Experimental lung metastasis (lung colonization assay); format: in vivo, C57BL6 mice; conditions: for Lung metastasis amount (mean standard deviation): Day 30, pulmonary nodules

In the case of CSCC[C@@H]1NC(=O)[C@H](Cc2c[nH]c3ccccc23)NC(=O)[C@@H](NC(=O)CCNC(=O)[C@H](CCC(N)=O)NC(=O)[C@@H]2CCCN2C(=O)[C@@H]2CCCN2C(=O)[C@H](CCCNC(=N)N)NC(=O)[C@H](CCCNC(=N)N)NC(=O)[C@H](CCCNC(=N)N)NC(=O)[C@H](CCC(N)=O)NC(=O)[C@H](CCCNC(=N)N)NC(=O)[C@H](CCCNC(=N)N)NC(=O)[C@H](CCCCN)NC(=O)[C@H](CCCCN)NC(=O)[C@H](CCCNC(=N)N)NC(=O)CN)CSSC[C@@H](C(N)=O)NC(=O)[C@H]([C@@H](C)O)NC(=O)CNC(=O)[C@H](CC(C)C)NC(=O)[C@H](Cc2c[nH]cn2)NC(=O)[C@H](CCCNC(=N)N)NC(=O)[C@@H]2CCCN2C(=O)[C@H](CO)NC1=O [The CIGB-300 peptide, reference compound], the “DHE reagent (Geometric mean) Mean” value ([1]; With NAC, 2 hours of incubation) is reported as 4355, the “DHE reagent (Geometric mean) Mean” value ([1]; Without NAC) is reported as 4446 and the CK2 enzyme activity ([2]; Peptide concentration 0.097 µM) is reported as 171±18 CPM x10^3. The CK2 enzyme activity ([2]; Peptide concentration 0.195 µM) was 169 ±21 CPM x10^3, the CK2 enzyme activity ([2]; Peptide concentration 0.39 µM) was 162 ±12 CPM x10^3 and the CK2 enzyme activity ([2]; Peptide concentration 0.781 µM) was 158 ±14 CPM x10^3. The CK2 enzyme activity ([2]; Peptide concentration 1.56 µM) was 109 ±9 CPM x10^3, the CK2 enzyme activity ([2]; Peptide concentration 3.125 µM) was 92 ±12 CPM x10^3 and the CK2 enzyme activity ([2]; Peptide concentration 6.25 µM) was 61 ±10 CPM x10^3. For the same compound, the CK2 enzyme activity ([2]; Peptide concentration 12.5 µM) was 31 ±7 CPM x10^3, the CK2 enzyme activity ([2]; Peptide concentration 25 µM) was 19 ±8 CPM x10^3 and the CK2 enzyme activity ([2]; Peptide concentration 50 µM) was 4 ±4 CPM x10^3. For the same compound, the “Lung metastasis amount (mean standard deviation)” value ([3]; 0.1 mg/kg intravenously for 5 consecutive days) was 171±37, the “Lung metastasis amount (mean standard deviation)” value ([3]; 1.0 mg/kg intravenously for 5 consecutive days) was 155±29 and the “Lung metastasis amount (mean standard deviation)” value ([3]; 5.0 mg/kg intravenously for 5 consecutive days) was 130±35. The “Lung metastasis amount (mean standard deviation)” value ([3]; 10.0 mg/kg intravenously for 5 consecutive days) was 96±19 and the “antimetastatic effect on lung colonization (in words)” value ([3]; doses of 0.1, 1, 5 and 10 mg/kg) was “exerted antimetastatic effects only at the highest dose”.
